The text below walks through data of the supplement of paper PMC8256030.

Where “and” joins values, the source holds several entries; their conditions need not be identical. Identical values can stand only once. The list shows a part of the results. Single values are uncertain here, since repeats match poorly.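 HEK293T cells were given each compound shortly before transfection with a reporter in which red mCherry is followed by the SARS-CoV-2 frameshift element and then GFP in the −1 frame, so GFP appears only after frameshifting.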

The test system of the experiment is HEK293T. The experiment in a line: percent viability (nuclei count) relative to control; higher = more viable cells. To be noted: 10 µM; 24 h.
Turning to `C[N+](C)(C)CCOC(=O)CCC(=O)OCC[N+](C)(C)C` [Succinylcholine], the percent viability was found to be 148%.

With `Nc1ncn([C@@H]2O[C@H](CO)[C@@H](O)[C@H]2O)c(=O)n1` [azacitidine], the percent viability amounted to 14.1%.

For the molecule `CC(C)c1nc(N(C)S(C)(=O)=O)nc(-c2ccc(F)cc2)c1/C=C/[C@@H](O)C[C@@H](O)CC(=O)O` [Rosuvastatin], the percent viability was 26.3%.

With `O=c1[nH]c(=O)n([C@H]2C[C@H](O)[C@@H](CO)O2)cc1C(F)(F)F` [trifluridine], the percent viability was 231% and 153%.

`CCN(CC)CCNC(=O)c1cc(S(C)(=O)=O)ccc1OC` [tiapride]: the percent viability stood at 196%.
